# Primary screen of a compound library

Mtb glucose medium: 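Phenotypic screen: M. tuberculosis growth, glucose 7H9 medium, 3 days; the read-out is not stated. Compounds at 50 µM. Higher reads as more growth inhibition (inferred: compounds with an IC50 in retests scored well above the rest). About 69,000 compounds were tested under these conditions; 1.1% (about 760) showed 50% or more at least once.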
Mtb cholesterol medium: 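Whole-cell growth test on Mycobacterium tuberculosis, read after 4 days in a medium based on cholesterol and the lipid DPPC; the read-out is not stated. Concentration: 50 µM. The record gives no direction; compounds that gave an IC50 in retests scored well above the rest, so higher reads as more growth inhibition. Of about 69,000 compounds tested this way, about 370 (0.54%) reached 50% or more in at least one test.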

The filed quantity is “Percent Effect” (%). The controls that fix the scale are not given in the record; negative values are as filed. Compounds were drawn at random from those tested, without regard to their results. Two or more numbers in one place are separate tests of the same structure; such repeats can differ widely.

For Cc1noc(CNc2cc3c(cc2Cl)OCCCO3)n1 the result was Mtb glucose medium: -6.32% & 7.401%; Mtb cholesterol medium: -25.79%.
For O=C(O)CSc1nnc(-c2ccco2)n1-c1ccccc1C(F)(F)F the result was Mtb glucose medium: 24.87%; Mtb cholesterol medium: 13.42%.
For Cc1ccsc1CN(C)C(=O)c1cc2c([nH]c1=O)CCCC2=O the result was Mtb glucose medium: -24.78%; Mtb cholesterol medium: -6.509%.
For CCS(=O)(=O)N(C)CC(=O)Nc1ccc(Br)cn1 the result was Mtb glucose medium: 10.23%; Mtb cholesterol medium: -0.000636%.
For Cn1cc(CNS(=O)(=O)c2cc(F)ccc2F)cn1 the result was Mtb glucose medium: 0.6775%; Mtb cholesterol medium: -17.56%.
For Cn1ccnc1COc1ccc(CN2CCC(C(N)=O)CC2)cc1 the result was Mtb glucose medium: 5.735%; Mtb cholesterol medium: -4.58%.
For CNc1cncc(C2CCCN2C(=O)c2ccc3c(c2)CCC3)n1 (stereo not given) the result was Mtb glucose medium: -0.5556%; Mtb cholesterol medium: -13.75%.
For Cc1cc(CN(C)C(=O)NCc2ccccn2)no1 the result was Mtb glucose medium: 5.754%; Mtb cholesterol medium: 9.5%.
For CC(=O)N1CCC(C(=O)N(CC(F)F)c2cccc(Cl)c2)CC1 the result was Mtb glucose medium: 3.027% & 2.95%; Mtb cholesterol medium: -7.585%.
For CC(C)c1nc(C2CCCN(C(=O)CS(=O)(=O)C(C)C)C2)no1 (stereo not given) the result was Mtb glucose medium: 3.207% & 1.062%; Mtb cholesterol medium: 0.8642%.
For CC(C)(C)C(=O)NCCC(=O)NCCc1ccn(-c2ccccc2)n1 the result was Mtb glucose medium: 4.825%; Mtb cholesterol medium: -6.845%.
For Cc1nn(C)c2cnn(C(C)C(=O)NCc3cccnc3)c12 (stereo not given) the result was Mtb glucose medium: 15.53%; Mtb cholesterol medium: 7.695%.
For Cc1ccc(CN(C(=O)NCCNC(=O)c2cccnc2)C(C)C)o1 the result was Mtb glucose medium: 21.53%; Mtb cholesterol medium: 9.095%.
For OC(CNCCc1nnc2ccccn12)c1ccc2c(c1)OCO2 (stereo not given) the result was Mtb glucose medium: 24.79%; Mtb cholesterol medium: 6.473%.
For CC(C)C1CN(C(=O)c2cc(C3CC3)n[nH]2)CCC(=O)N1CC1CC1 (stereo not given) the result was Mtb glucose medium: 3.701%; Mtb cholesterol medium: -15.76%.
For CCN1CCC12CCN(C(=O)c1cc(C)on1)C2.O=C(O)C(F)(F)F (stereo not given) the result was Mtb glucose medium: 8.863%; Mtb cholesterol medium: 5.24%.
For COCCN1CCC(c2nc3ccccc3[nH]2)CC1 the result was Mtb glucose medium: -1.144%; Mtb cholesterol medium: -7.608%.
For Cc1cccc(NC(=O)c2nn(C3CCS(=O)(=O)C3)c3c2CCCC3)n1 (stereo not given) the result was Mtb glucose medium: 11.52%; Mtb cholesterol medium: -10.7%.
For O=C(NCCNC(=O)c1ccc(Cl)cc1)NCCn1cccc1 the result was Mtb glucose medium: 26.52%; Mtb cholesterol medium: 14.96%.
For CNC(=O)c1ccc(C2CN(C(=O)c3c[nH]nc3C)CCO2)nc1 (stereo not given) the result was Mtb glucose medium: 14.94%; Mtb cholesterol medium: 2.151%.
For CCO[C@H]1CN(C)C[C@@H]1NC(=O)c1cc(C)nc2ccc(C)cc12 the result was Mtb glucose medium: 8.875%; Mtb cholesterol medium: 13.23%.
For CSc1nccn1-c1cccc(C(=O)NCc2nnc(C)n2C)c1 the result was Mtb glucose medium: 14.98%; Mtb cholesterol medium: 10.21%.
For CCOCCCOC(=O)c1ccc2c(c1)[nH]c(=O)n2C the result was Mtb glucose medium: -8.515%; Mtb cholesterol medium: -14.92%.

2 of the entries, repeated:

With O=C(O)CSc1nnc(-c2ccco2)n1-c1ccccc1C(F)(F)F the screen gave Mtb glucose medium: 24.87%; Mtb cholesterol medium: 13.42%.
With CC(=O)N1CCC(C(=O)N(CC(F)F)c2cccc(Cl)c2)CC1 the screen gave Mtb glucose medium: 3.027% & 2.95%; Mtb cholesterol medium: -7.585%.

The values are deposited in ChEMBL (CHEMBL3988442, “University of Dundee, Small-Polar-MMV Screening Library” (2021)).